In publication PMC12010153:
No constants are given. Whether binding was seen depends on the method and setting. Binding seen in cells or lysates may run through a third protein. Some entries that bind do so weakly or less than the wild type. Where a sequence is shown, tags or fusion partners need not be part of it.

Sequences of proteins named here, by UniProt entry; tags and fusion partners are left off.
UniProt P36405: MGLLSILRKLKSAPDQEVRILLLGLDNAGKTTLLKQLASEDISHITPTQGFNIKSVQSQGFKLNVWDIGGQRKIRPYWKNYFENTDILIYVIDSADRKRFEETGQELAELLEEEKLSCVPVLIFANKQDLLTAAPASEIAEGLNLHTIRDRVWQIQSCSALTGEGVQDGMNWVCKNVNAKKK

Biological target: T1, RP2-GFP (UniProt O75695)
T1 sequence: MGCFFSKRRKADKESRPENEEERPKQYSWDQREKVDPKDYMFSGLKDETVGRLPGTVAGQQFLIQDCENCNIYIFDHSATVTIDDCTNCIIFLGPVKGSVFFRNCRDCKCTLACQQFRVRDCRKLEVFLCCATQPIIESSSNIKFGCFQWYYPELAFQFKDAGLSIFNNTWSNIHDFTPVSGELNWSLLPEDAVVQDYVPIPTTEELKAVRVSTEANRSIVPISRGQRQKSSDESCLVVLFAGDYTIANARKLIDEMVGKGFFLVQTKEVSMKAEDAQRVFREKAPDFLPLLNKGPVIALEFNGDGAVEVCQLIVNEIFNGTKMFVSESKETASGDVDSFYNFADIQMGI
Test: co-IP; HEK293 cells co-transfected with GFP-RP2 and VSV-ARL3 plasmids, 48 h; lysis in 10 mM Tris/Cl pH 7.5, 150 mM NaCl, 0.5 mM EDTA, 0.5% Nonidet P40 Substitute; lysates on GFP-Trap Magnetic Agarose beads; blots with anti-GFP and anti-VSV

ARL3-WT-VSV (from UniProt P36405 1-182)
binding: binds
